The assay deals with B6C3F1 mice, B16 melanoma ip, median survival T/C. As to the kind of experiment: NCI In Vivo Anticancer Drug Screen. Data for tumor model B16 Melanoma (intraperitoneal) in B6C3F1 mice. As to conditions: T/C endpoint: median survival time, higher T/C = longer survival. Put shortly:
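Mice bearing transplanted tumor were dosed with compound or vehicle, and survival was recorded. Activity is expressed as the treated-group measurement (T) divided by the vehicle control measurement (C).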

The mark [1] stands for this setting: dose: 100.0 mg/kg/injection, schedule: Q01DX009 (ip), vehicle: saline with Tween-80.
The mark [2] stands for this setting: dose: 200.0 mg/kg/injection, schedule: Q01DX009 (ip), vehicle: saline with Tween-80.
Setting [3] is: dose: 400.0 mg/kg/injection, schedule: Q01DX009 (ip), vehicle: saline with Tween-80.
The mark [4] stands for this setting: dose: 25.0 mg/kg/injection, schedule: Q01DX009 (ip), vehicle: saline.
Setting [5] is: dose: 50.0 mg/kg/injection, schedule: Q01DX009 (ip), vehicle: saline.
Where [6] appears, read: dose: 100.0 mg/kg/injection, schedule: Q01DX009 (ip), vehicle: saline.
[7] abbreviates: dose: 50.0 mg/kg/injection, schedule: Q01DX009 (ip), vehicle: saline with Tween-80.
Setting [8] is: dose: 5.0 mg/kg/injection, schedule: Q01DX009 (ip), vehicle: saline.
Setting [9] is: dose: 10.0 mg/kg/injection, schedule: Q01DX009 (ip), vehicle: saline.
Setting [10] is: dose: 20.0 mg/kg/injection, schedule: Q01DX009 (ip), vehicle: saline.

The list is a part of this screen's results and no random one: it is rich in T/C values a quarter to a half above the control, in often repeated tests (any T/C) and in doses without a T/C. Other doses and runs of a compound stand elsewhere. T/C gives the treated animals as a percentage of the vehicle group. Some entries give survivors of the animals treated and no T/C: the source files T/C as zero there, which appears to mark a toxic dose or a test without result, not a measured value. Some doses without a T/C left all or most animals alive at the check, yet need not have been tolerated: the source hardly ever lists a survival T/C far under the control, and the zero likely stands for such cases as well. Survivors were counted at the toxicity check, usually on the fifth day, unless a day is given; later deaths do not show. Schedule codes are those of the source, read here as Q, the interval in days (D) or hours (H), X, the number of doses. Additions like (4×) stand for listed records that agree. Some doses were run more than once; their values stand side by side, smallest first. For survival time, the PubChem record calls one and a half times the control and up active, and a quarter to a half above the control has no call in these data; cut-offs in other NCI protocols can differ. Some T/C values are followed by the survivors on the day toxicity was checked, most often the fifth; without a count, all were alive then.

Turning to `Cc1cc(=NO)cc(C)n1O`, under “dose: 200.0 mg/kg/injection, schedule: Q01DX009 (ip), vehicle: distilled water + alcohol”, the survivor count is given as 10 of 10.

As for `CCOC(OCC)C(=O)OCC(=O)[C@]1(O)Cc2c(O)c3c(c(O)c2[C@@H](OC2CC(N)C(O)C(C)O2)C1)C(=O)c1c(OC)cccc1C3=O` (stereo partly drawn), the survivor count is 9 of 10 (dose: 4.0 mg/kg/injection, schedule: Q01DX009 (ip), vehicle: water); 9 of 10 and 10 of 10 (dose: 8.0 mg/kg/injection, schedule: Q01DX009 (ip), vehicle: water).

`NCCc1ccc(O)cc1`: the survivor count (dose: 800.0 mg/kg/injection, schedule: Q01DX009 (ip), vehicle: saline) was 0 of 10.

Consider `C[C@H](N)C(=O)N[C@@H]1[C@H]2C(=C(O)C[C@@H](O)[C@@H]2O)C(=O)O[C@@H]1C`, for which the T/C (dose: 600.0 mg/kg/injection, schedule: Q01DX009 (ip), vehicle: saline with Tween-80) is 125 % of control. The survivor count (dose: 2400.0 mg/kg/injection, schedule: Q01DX009 (ip), vehicle: saline with Tween-80) was 1 of 10.

With `CC(=Nc1ccccc1)C1=C(O)C(Cc2ccccc2)NC1=O` (stereo not drawn), the T/C is 132 % of control under setting [1] and 130 % of control under setting [2]. Besides, the survivor count under setting [3] is 1 of 10.

Take `O=c1[nH]c2c(ccc3cnccc32)c2c1CCC2`: the T/C under setting [4] was 133 % of control. For the same compound, the survivor count runs as follows: under setting [5], 9 of 10; under setting [6], 10 of 10.

Turning to `COc1ccc(C[C@@H]2NC[C@@H](O)[C@@H]2OC(C)=O)cc1`, the T/C runs as follows: (dose: 25.0 mg/kg/injection, schedule: Q01DX009 (ip), vehicle: saline with Tween-80) 125 % of control; under setting [7], 135 % of control; under setting [1], 125 [9 of 10 alive] and 136 % of control. In addition, the survivor count runs as follows: under setting [3], 0 of 10 and 6 of 10; (dose: 400.0 mg/kg/injection, schedule: Q04DX003 (ip), vehicle: saline with Tween-80) 5 of 10.

`Nc1nc(SCc2ccccc2)c2ncn(C3OC(CO)CC3O)c2n1` (stereo not drawn): the survivor count is, setting by setting: (dose: 200.0 mg/kg/injection, schedule: Q01DX009 (ip), vehicle: Klucel (hydroxypropylcellulose) (HPC)) 10 of 10; (dose: 400.0 mg/kg/injection, schedule: Q01DX009 (ip), vehicle: Klucel (hydroxypropylcellulose) (HPC)) 9 of 10.

Turning to `CCN1/C(=C/C=C/C=C\C=C\c2sc3ccc4ccccc4c3[n+]2CC)Sc2ccc3ccccc3c21`, the survivor count is, setting by setting: (dose: 5.0 mg/kg/injection, schedule: Q01DX009 (ip), vehicle: saline with Tween-80) 10 of 10; under setting [8], 10 of 10; (dose: 10.0 mg/kg/injection, schedule: Q01DX009 (ip), vehicle: saline with Tween-80) 9 of 10; under setting [9], 10 of 10; (dose: 20.0 mg/kg/injection, schedule: Q01DX009 (ip), vehicle: saline with Tween-80) 10 of 10; under setting [10], 10 of 10. For the same compound, the survivor count (dose: 40.0 mg/kg/injection, schedule: Q01DX009 (ip), vehicle: saline with Tween-80) is 7 of 10 and the survivor count (dose: 40.0 mg/kg/injection, schedule: Q01DX009 (ip), vehicle: saline) is 10 of 10.

As to `COc1cc2cc(c1Cl)N(C)C(=O)/C=C/C1(C)OC1C(C)C1CC(O)(NC(=O)O1)C(OC)/C=C/C=C(\C)C2OC` (stereo not drawn), the T/C (dose: 32.0 micrograms/kg/injection, schedule: Q01DX009 (ip), vehicle: distilled water + alcohol) is 135 % of control.

Consider `COc1cccc2c1C(=O)c1c(O)c3c(c(O)c1C2=O)C[C@@](O)(C(=O)CO)C[C@@H]3OC1CC(N)CC(C)O1` (stereo partly drawn), for which the survivor count (dose: 3.0 mg/kg/injection, schedule: Q01DX009 (ip), vehicle: water) was 10 of 10 and the survivor count (dose: 6.0 mg/kg/injection, schedule: Q01DX009 (ip), vehicle: water) is reported as 9 of 10.

As for `CCCC1CCC(=C2C(=O)CCC2=O)O1` (stereo not drawn), the survivor count by setting is: under setting [1], 8 of 10; under setting [2], 6 of 10; under setting [3], 1 of 10.

Regarding `C[C@@H]1CN(C(=O)CCOS(C)(=O)=O)[C@@H](C)CN1C(=O)CCOS(C)(=O)=O`, the T/C was 126 % of control under setting [4]; 134 % of control under setting [7]; 131 % of control under setting [5]; 142 % of control under setting [1]; 144 % of control under setting [6]; 136 % of control under setting [2].

`CCCCCCCCCCS(=O)CC(CO)NC(=O)/C=C/c1c(C)[nH]c(=O)[nH]c1=O` (stereo not drawn): the survivor count reads like this: (dose: 12.0 mg/kg/injection, schedule: Q01DX009 (ip), vehicle: distilled water + Tween-80) 10 of 10; (dose: 12.0 mg/kg/injection, schedule: Q01DX009 (ip), vehicle: water) 8 of 10.

Turning to `Cc1nc(N)nc(N)c1-c1ccc(Cl)c(Cl)c1`, the T/C (dose: 2.5 mg/kg/injection, schedule: Q01DX009 (ip), vehicle: saline) was 128 % of control. Moreover, the survivor count under setting [8] was 10 of 10 (2×), the survivor count under setting [9] is 10 of 10 (2×) and the survivor count under setting [10] is given as 9 of 10.

As for `Nc1n[n+](-c2ccccc2)no1`, the T/C (dose: 25.0 mg/kg/injection, schedule: Q01DX009 (ip), vehicle: water) was 136 % of control. Besides, the survivor count (dose: 50.0 mg/kg/injection, schedule: Q01DX009 (ip), vehicle: water) is listed as 10 of 10 and the survivor count (dose: 100.0 mg/kg/injection, schedule: Q01DX009 (ip), vehicle: water) is reported as 0 of 10.

(Values after PubChem BioAssay AID200 (DTP/NCI, 2004).)
